{"source": "patent US11220671B2", "about": "“Methods for the maturation of cardiomyocytes on amniotic fluid cell-derived ECM, cellular constructs, and uses for cardiotoxicity and proarrhythmic screening of drug compounds” (STEMBIOSYS, INC., priority 2019, dated 2022)", "origin": "cited, not measured here", "details": "cited from earlier work", "note": "At least one compound was matched to its structure with a doubt left.", "data": [{"compound": "CN(C)CCCN1c2ccccc2Sc2ccc(Cl)cc21", "note": "[Chlorpromazir]", "values": [{"measurement": "Risk Category", "value": "Intermediate"}]}]}
